No constants are given. Whether binding was seen depends on the method and setting. Binding calls can cover weak binding; strength is not graded here.

The target of the assay is T1, TcdB1 (B-subunit of the Photorhabdus Tcd toxin complex) (Photorhabdus luminescens strain W14) (UniProt Q93EP6).
T1 sequence: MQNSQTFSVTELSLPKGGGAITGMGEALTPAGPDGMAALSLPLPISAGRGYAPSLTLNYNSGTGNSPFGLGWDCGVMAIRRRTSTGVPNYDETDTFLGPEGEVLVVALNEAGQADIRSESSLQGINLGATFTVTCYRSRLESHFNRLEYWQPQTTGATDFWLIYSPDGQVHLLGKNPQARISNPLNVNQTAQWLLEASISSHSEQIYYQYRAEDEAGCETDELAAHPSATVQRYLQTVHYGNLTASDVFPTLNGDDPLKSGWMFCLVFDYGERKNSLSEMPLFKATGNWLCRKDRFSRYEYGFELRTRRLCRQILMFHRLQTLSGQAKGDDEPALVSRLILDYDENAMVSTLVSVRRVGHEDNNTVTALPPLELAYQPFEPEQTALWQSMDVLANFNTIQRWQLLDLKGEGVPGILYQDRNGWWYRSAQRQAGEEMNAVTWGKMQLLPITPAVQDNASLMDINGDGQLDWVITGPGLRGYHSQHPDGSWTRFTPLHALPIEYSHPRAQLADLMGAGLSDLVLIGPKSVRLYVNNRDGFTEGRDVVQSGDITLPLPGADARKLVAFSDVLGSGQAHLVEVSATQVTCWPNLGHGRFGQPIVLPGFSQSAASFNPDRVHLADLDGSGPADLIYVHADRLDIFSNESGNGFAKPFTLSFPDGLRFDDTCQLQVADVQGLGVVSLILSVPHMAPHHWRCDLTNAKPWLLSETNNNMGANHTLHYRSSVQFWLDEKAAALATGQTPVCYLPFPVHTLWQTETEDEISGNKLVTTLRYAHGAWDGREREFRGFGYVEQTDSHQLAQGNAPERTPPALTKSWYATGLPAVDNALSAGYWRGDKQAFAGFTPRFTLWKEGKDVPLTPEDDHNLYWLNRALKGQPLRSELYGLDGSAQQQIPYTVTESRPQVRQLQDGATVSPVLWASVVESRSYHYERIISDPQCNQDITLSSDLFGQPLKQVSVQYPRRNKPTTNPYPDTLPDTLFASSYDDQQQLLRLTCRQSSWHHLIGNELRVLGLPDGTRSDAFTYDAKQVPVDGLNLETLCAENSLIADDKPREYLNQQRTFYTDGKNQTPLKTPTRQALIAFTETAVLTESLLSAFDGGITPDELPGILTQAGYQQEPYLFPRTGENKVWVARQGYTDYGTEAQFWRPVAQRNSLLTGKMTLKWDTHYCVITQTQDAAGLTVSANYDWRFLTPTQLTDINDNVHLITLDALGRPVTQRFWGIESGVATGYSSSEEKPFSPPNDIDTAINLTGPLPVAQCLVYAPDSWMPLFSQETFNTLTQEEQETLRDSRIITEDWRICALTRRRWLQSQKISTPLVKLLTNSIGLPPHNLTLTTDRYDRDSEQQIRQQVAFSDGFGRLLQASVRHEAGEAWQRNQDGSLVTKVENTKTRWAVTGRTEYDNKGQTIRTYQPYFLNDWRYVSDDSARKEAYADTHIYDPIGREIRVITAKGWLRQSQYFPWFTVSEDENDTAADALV
In words: two-dimensional gel electrophoresis with MALDI-TOF of the spots; total cell protein of E. coli co-producing TcdB1 and TccC1 (pBC1), compared with pB; spots identified by MALDI-TOF.

For the substance “TccC1 (C-subunit of the Photorhabdus toxin complex) (P. luminescens)”, the binding result is given as “binds”.

These data come from article PMC3789776.
